{"source": "patent US20050287569A1", "binders": {"B1": {"name": "EspFU, Gal4-fusion (Example 10; fragment not specified in the sentence) (protein)", "chain": "LPNVRQRLIQHLAEHGIKPARSMAEHIPPAPNWPAPPPPVQNEQSRPLPDVAQRLVQHLAEHGIQPARNMAEHIPPAPNWPAPPLPVQNEQSRPLPDVAQRLVQHLAEHGIQPARSMAEHIPPAPNWPAPPPPVQNEQSRPLPDVAQRLVQHLAEHGIQPARSMAEHIPPAPNWPAPPPPVQNEQSRPLPDVAQRLMQHLAEHGIQPARNMAEHIPPAPNWPAPTPPVQNEQSRPLPDVAQRLMQHLAEHGIQPARNMAEHIPPAPNWPAPTPPVQNEQSRPLPDVAQRLMQHLAEHGINTSKRS"}}, "key": {"[1]": {"target": "SH3 domain of cortactin (two-hybrid fusion)", "assay": "yeast two-hybrid (beta-galactosidase, 3-AT resistance)"}, "[2]": {"target": "SH3 domains of Nck (two-hybrid fusion)", "assay": "yeast two-hybrid (beta-galactosidase, 3-AT resistance)"}}, "note": "Results are given in words; binding and its absence hold for the method and conditions named. Where a sequence is shown, tags or fusion partners need not be part of it.", "data": [{"binder": "B1", "values": [{"measurement": "binding", "setting": "[1]", "result": "no binding"}, {"measurement": "binding", "setting": "[2]", "result": "no binding"}]}]}
